# From PubChem BioAssay (NCATS)
# Sequences of proteins named here, by UniProt entry; tags and fusion partners are left off. A change or cut given only in a name is not applied to a line headed by its entry.
# UniProt P04150: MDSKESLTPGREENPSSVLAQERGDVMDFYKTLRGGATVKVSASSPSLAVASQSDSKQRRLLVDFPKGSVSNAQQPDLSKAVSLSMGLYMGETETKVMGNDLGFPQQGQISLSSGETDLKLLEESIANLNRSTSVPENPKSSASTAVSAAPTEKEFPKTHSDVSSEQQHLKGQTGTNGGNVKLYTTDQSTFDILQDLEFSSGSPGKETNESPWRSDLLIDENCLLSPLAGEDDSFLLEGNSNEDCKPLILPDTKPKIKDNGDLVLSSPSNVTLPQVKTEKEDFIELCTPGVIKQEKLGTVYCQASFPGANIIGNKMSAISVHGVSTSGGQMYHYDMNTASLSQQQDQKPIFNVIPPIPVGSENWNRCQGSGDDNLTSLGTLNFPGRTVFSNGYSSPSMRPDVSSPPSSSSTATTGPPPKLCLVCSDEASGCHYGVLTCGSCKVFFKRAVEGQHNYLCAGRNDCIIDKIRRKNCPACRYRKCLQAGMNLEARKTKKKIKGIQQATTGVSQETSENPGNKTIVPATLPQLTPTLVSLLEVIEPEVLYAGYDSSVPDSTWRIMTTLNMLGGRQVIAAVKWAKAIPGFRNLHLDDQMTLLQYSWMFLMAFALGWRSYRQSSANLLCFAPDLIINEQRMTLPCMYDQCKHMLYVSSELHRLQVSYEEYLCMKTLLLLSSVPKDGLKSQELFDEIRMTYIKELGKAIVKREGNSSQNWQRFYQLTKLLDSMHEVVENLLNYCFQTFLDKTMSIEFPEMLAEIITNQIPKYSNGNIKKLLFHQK
# What follows is the remainder of the data, with few or none of the hits. Results filed as inconclusive are left out. The source made the active and inactive calls. Unless noted, the call rests on the fitted dose curve; in most records, active means well fitted curve in the direction sought with a large enough effect; inconclusive means small, poorly fitted or top-dose-only effect, or another doubt; inactive means no such curve, though single readings can be large; an effect the other way counts as inactive or inconclusive.
# How the values were obtained:
# [1] = Primary qHTS for inhibitors of nuclear receptor binding SET domain protein 2 (NSD2) in an isogenic RCH-ACV NSD2 p.E1099K mutant (9B) (AID 1645876); settings: RCH-ACV NSD2 E1099K (9B) viability, CellTiter-Glo, 72 h; further: nearly all actives have a fitted effect of over 70% in size
# [2] = Primary qHTS for inhibitors of nuclear receptor binding SET domain protein 2 (NSD2) in an RCH-ACV wild type WT cells (2C) (AID 1645877); settings: RCH-ACV (leukaemia line) NSD2 WT (2C) viability, CellTiter-Glo, 72 h; further: nearly all actives have a fitted effect of over 70% in size
# [3] = target: Glucocorticoid receptor (Homo sapiens) (UniProt P04150); test: GR-GFP Redistribution (AID 450;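 active means compounds whose dose series gives a full or clear partial fitted curve of increased nuclear translocation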); settings: U2OS GR-GFP nuclear translocation, laser cytometry, 2 h
# Text: NIH Molecular Libraries Screening Centers Network [MLSCN]
# NIH Chemical Genomics Center [NCGC]
# The glucocorticoid receptor (GR) Redistribution assay (BioImage) enables the visualization of GR cytoplasmic to nuclear translocation by the use of a GR-GFP fusion. GR is normally cytosolic, however ligands such as dexamethasone, cause nuclear translocation where the protein binds to response elements and interacts with various co-factors to modulate transcription. Because both functional agonists and antagonists can induce nuclear translocation, this assay can detect ligands regardless of their effects on gene expression. GR-GFP expressing U20S cells were used here. Dexamethasone was the positive control for translocation and data normalization. Detection of nuclear translocation was performed in 1536-well plates using the Acumen laser scanning plate cytometer (TTP LabTech). Validation of this assay and a detailed protocol have been described.
# NCGC Assay Protocol Summary:
# GR-GFP U2OS cells were maintained in DMEM with Glutamax and high glucose, 1% v/v penicillin-streptomycin, and 0.5 mg/mL Geneticin. […] The plates were read by the Acumen Explorer using a 1 x 8 um scan of the whole well area. PI fluorescence triggered the collection of PI and GFP signals. […] Two subpopulations of nuclei were then defined by peak intensity of GFP fluorescence to obtain translocated and untranslocated objects. […]
# [4] = target: Glucocorticoid receptor (Homo sapiens) (UniProt P04150); test: GR-EFC Redistribution (AID 451; calls by dose curve); settings: CHO-K1 GR-EFC translocation, beta-gal luminescence, 2 h
# Method in brief: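 CHO-K1 cells stably expressing nuclear-localized β-gal enzyme acceptor and GR fused C-terminally to the enzyme donor fragment; ligand-driven nuclear translocation restores β-gal by complementation. Compounds titrated up to 46 uM final, 2 h at 37 °C; luminescence read.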
# Potency means the concentration at half of the fitted maximal effect.
SMILES,Potency [1],Potency [2],Potency [3],Potency [4]
CN1CC[C@]23c4c5ccc(O)c4O[C@H]2[C@@H](O)C=C[C@H]3[C@H]1C5,active: 42.8 µM,active: 21.5 µM,,
CN[C@@H](C)[C@H]1CC[C@@H](N)[C@@H](O[C@@H]2[C@@H](O)[C@@H](O[C@H]3OC[C@@](C)(O)[C@@H](NC)[C@@H]3O)[C@H](N)C[C@@H]2N)O1 (tested in a mixture with another compound),,,inactive: > 20.6 µM,inactive: > 20.6 µM
